Laboratory results: PubChem BioAssay AID2685 (National Center for Advancing Translational Sciences (NCATS), 2010)
Out of some 320,000 compounds screened, about 2,100 (0.66%) were called active. Inconclusive results, whose numbers are uncertain, are shown with a selection of clear calls. The call rests on the fitted dose curve; in most records, active means well fitted inhibition curve with a large enough effect in the signal ratio, with a control signal flat (not every such curve was filed as active); inconclusive means small, poorly fitted or top-dose-only effect, or effect the other way, or a change in a side signal; inactive means flat fitted curve, though single readings scatter; the % refers to the signal ratio. Potencies beside an inconclusive call are fits to weak or partial responses and may not hold up.
On the % scale 0 is the no-effect control and ±100 the full control effect; potency means the concentration at half of the fitted maximal effect.

Experiment: qHTS Assay for Lipid Storage Modulators in Drosophila S3 Cells
Conditions: BODIPY lipid droplet fluorescence, 18-24 h, cells fed with added oleic acid; lipid storage change, negative = inhibition: at 46.1 µM (top of the series) unless noted
How it was run: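 Drosophila S3 cells loaded with oleic acid (400 uM, as added) and compounds at several concentrations; lipid droplets imaged by 488-nm laser-scanning cytometry, 500–530 nm intensity and object ratio to cell channel. Percent activity normalized to 20 uM Triacsin C.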
In the case of `O=C(CCCNS(=O)(=O)c1cccc2nsnc12)NCc1ccc(Cl)cc1`, the lipid storage change, negative = inhibition is reported as inconclusive: -27.7%.
For `Cc1ccc(S(=O)(=O)N2CCOCC2)cc1C(=O)OCC(=O)N(Cc1ccccc1)C(C)C`, the lipid storage change, negative = inhibition was inconclusive: 8.45%.
In the case of `Cc1ccc(C)c(Cn2c3ccccc3c3cnn(CC(=O)NCc4ccccn4)c(=O)c32)c1`, the “outcome” value is reported as “inactive [at 46.1 µM]”.
With `O=C(C[n+]1ccccc1)N/N=C/c1cccc(Cl)c1Cl` the “lipid storage change, negative = inhibition” value was inactive: -4.8%.
In the case of `O=C(C[n+]1ccccc1)N/N=C/c1ccc(Br)cc1`, the lipid storage change, negative = inhibition is reported as inconclusive: 64.3%.
With `COc1ccc(-n2c(-c3ccco3)n[nH]c2=S)cc1` the Potency was inconclusive: 29.1 µM [activator, single point].
For `CCN(CC)C(=O)CSc1nc(C)cc(C)n1`, the “lipid storage change, negative = inhibition” value was inactive: -0.849%.
For `CCN1C(=O)N(c2ccc(C(C)=O)cc2)S(=O)(=O)c2ccccc21`, the “lipid storage change, negative = inhibition” value was inactive: 20.2%.
With `COc1ccc(C(=O)NC(=S)NNC(=O)c2ccncc2)cc1Br` the lipid storage change, negative = inhibition was inconclusive: -9.07%.
In the case of `O=C(CN1CCN(Cc2ccc3c(c2)OCO3)CC1)N1CCc2[nH]c3ccc(F)cc3c2C1`, the lipid storage change, negative = inhibition is reported as inconclusive: 21.5%.
In the case of `Cc1ccccc1NC(=O)CSCc1nc(N)nc(Nc2ccccc2C)n1`, the lipid storage change, negative = inhibition is reported as inconclusive: 13.8%.
In the case of `CC(C)C(NC(=O)c1c(F)cccc1F)C(=O)OCN1C(=O)c2ccccc2C1=O` (stereo not given), the Potency is reported as inconclusive: 29.1 µM [activator, single point].
For `O=C1C(Cc2ccccc2)Nc2ncnc(N3CCN(c4ccccc4)CC3)c2N1Cc1ccccc1` (stereo not given), the lipid storage change, negative = inhibition was inconclusive: 24.2%.
For `Cc1ccccc1Nc1c(-c2cccnc2)nc2cccc(C)n12`, the lipid storage change, negative = inhibition was inconclusive: 7.42%.
In the case of `CCOc1cccc(C(=O)NCc2ccccc2)c1`, the Potency is reported as inconclusive: 3.26 µM [falling, partial curve, poor fit].
In the case of `COc1ccc(-n2nnc3c(SC(C(C)=O)C(=O)N(C)C)ncnc32)cc1` (stereo not given), the Potency is reported as inconclusive: 29.1 µM [activator, single point].
For `O=C1NC2(CCCCC2)C(=O)N1c1ccc(Cl)cc1`, the lipid storage change, negative = inhibition was inconclusive: 40.9%.
In the case of `COC(=O)c1cn(C(=O)c2cccc(Br)c2)c2ccccc12`, the lipid storage change, negative = inhibition is reported as inconclusive: 16.8%.
In the case of `COc1ccc(C2C3=C(CC(C)(C)CC3=O)Oc3ncn(CCCn4ccnc4)c(=N)c32)cc1` (stereo not given), the Potency is reported as inconclusive: 0.411 µM [activator, full curve, poor fit].
In the case of `COc1ccc(-c2c(C)oc3ccc(C)cc23)cc1`, the lipid storage change, negative = inhibition is reported as inconclusive: 21%.
With `Nc1nc(CN2CCc3ccccc3C2)nc(Nc2ccccc2)n1` the “outcome” value was “inactive [at 46.1 µM]”.
With `Cc1ccc(CC(=O)N2CCN(c3ccccn3)CC2)cc1` the lipid storage change, negative = inhibition was inconclusive: -0.0583%.
In the case of `COc1ccc(S(=O)(=O)Nc2cc3c(C(C)=O)c(C)oc3c3ccccc23)cc1`, the Potency is reported as inconclusive: 0.366 µM [activator, partial curve, poor fit].
For `COCCN(C(=O)COC(=O)c1cccnc1SC)c1c(N)n(Cc2ccccc2)c(=O)[nH]c1=O`, the Potency was inconclusive: 7.31 µM [falling, partial curve].
With `O=C(Cc1ccc(Br)cc1)NCc1ccccc1` the Potency was inconclusive: 16.4 µM [falling, partial curve].
With `CC(C)N(CC#CCC(O)(c1ccccc1)c1ccccc1)C(C)C` the lipid storage change, negative = inhibition was inconclusive: -3.7%.
For `O=S(=O)(c1cccnc1)N1CCn2cccc2C1c1ccccc1F` (stereo not given), the lipid storage change, negative = inhibition was inconclusive: 25.6%.
With `Cc1cccc(CN2CCN(C(=O)CCl)CC2)c1` the Potency was inconclusive: 23.1 µM [falling, single point].
In the case of `Cc1ncsc1CCOC(=O)c1ccc(N2CCOCC2)c([N+](=O)[O-])c1`, the lipid storage change, negative = inhibition is reported as inconclusive: -33.9%.
With `COc1ccccc1-n1c(CNC(=O)c2cccs2)n[nH]c1=S` the lipid storage change, negative = inhibition was inconclusive: -7.08%.
In the case of `COc1ccc(-c2noc(N3CCC(C(=O)NCCCN4CCCC(C)C4)CC3)n2)cc1` (stereo not given), the Potency is reported as inconclusive: 5.8 µM [activator, single point].
In the case of `COc1ccc(-c2cc(-c3c(O)c(OC)c4occc4c3OC)[nH]n2)cc1OC`, the Potency is reported as inconclusive: 9.2 µM [falling, partial curve].
In the case of `COc1ccc(Cl)cc1NC(=O)C1CCCN(S(C)(=O)=O)C1` (stereo not given), the lipid storage change, negative = inhibition is reported as inconclusive: 103%.
In the case of `O=C1NC(Cc2c[nH]c3ccccc23)C(=O)N1CCOc1ccccc1` (stereo not given), the lipid storage change, negative = inhibition is reported as inconclusive: 83.6%.
For `COc1cc(OC)cc(-c2cc(N)n(S(=O)(=O)c3cccc4nsnc34)n2)c1`, the Potency was inconclusive: 2.31 µM [rising, full curve].
For `COc1cccc(NC(=O)CN(C)C(=O)CN2C(=O)NC(C)(c3ccc(C)cc3)C2=O)c1` (stereo not given), the lipid storage change, negative = inhibition was inconclusive: 15.4%.
With `CC(=O)c1ccccc1NC(=O)C1CC(=O)N(c2ccc3c(c2)OCCO3)C1` (stereo not given) the lipid storage change, negative = inhibition was inconclusive: 6.57%.
In the case of `CCOc1cc(C2c3c(oc4cc(C)c(Cl)cc4c3=O)C(=O)N2Cc2ccco2)ccc1O` (stereo not given), the Potency is reported as inconclusive: 29.1 µM [cytotoxic, single point].
In the case of `Cc1ccc(N(C(=O)c2csnn2)C(C(=O)NC2CCCCC2)c2ccccn2)cc1` (stereo not given), the Potency is reported as inconclusive: 5.8 µM [falling, single point].
In the case of `Cc1cc(-n2nc(C)cc2C)nc(NS(=O)(=O)c2ccccc2Cl)n1`, the lipid storage change, negative = inhibition is reported as inconclusive: -7%.
In the case of `COC(=O)C(CCCCNC(=O)c1ccc([N+](=O)[O-])cc1)NC(=O)c1ccc([N+](=O)[O-])cc1` (stereo not given), the lipid storage change, negative = inhibition is reported as inconclusive: 9.69%.
For `Cc1cc(O)c(C(=O)c2ccccc2C(=O)O)cc1C`, the lipid storage change, negative = inhibition was inconclusive: 5.34%.
With `O=C(NCc1cccs1)c1cc(S(=O)(=O)N2CCOCC2)c(Cl)cc1Cl` the Potency was inconclusive: 29.1 µM [activator, single point].
In the case of `COc1cc2c(cc1OC)C(COc1ccc(F)cc1)NCC2` (stereo not given), the lipid storage change, negative = inhibition is reported as inconclusive: 20.4%.
With `COc1ccc(/C=C2/NC(=O)N(CC(=O)Nc3cccc(C)c3)C2=O)cc1O` the lipid storage change, negative = inhibition was inconclusive: 12.2%.
With `C=CCOc1c(Br)cc(CNc2ccc3[nH]c(=O)[nH]c3c2)cc1OCC` the lipid storage change, negative = inhibition was inconclusive: -41.9% [at 0.369 µM].
For `COc1ccc(N2C(=O)C(F)(F)C2c2cccc(F)c2)cc1` (stereo not given), the lipid storage change, negative = inhibition was inconclusive: -28.4%.
With `COc1ccccc1NC(=O)c1c([N+](=O)[O-])c(C(C)(C)C)nn1C` the “lipid storage change, negative = inhibition” value was inactive: 4.27%.
In the case of `CCOc1cc(C(=O)NCCCn2ccnc2)cc(OCC)c1OCC`, the lipid storage change, negative = inhibition is reported as inconclusive: 13.7%.
For `CCOC(=O)N1CCN(C(=O)COC(=O)CNC(=O)c2ccc(OCC)c(OCC)c2)CC1`, the lipid storage change, negative = inhibition was “inconclusive”.
With `O=C(/C=C/c1ccc(F)cc1)N1CCc2ccccc2C1` the lipid storage change, negative = inhibition was inconclusive: 3.94%.
With `CCN(CC)CCCN1C(=O)C(=O)/C(=C(/O)c2ccc(C)cc2)C1c1ccccn1` (stereo not given) the lipid storage change, negative = inhibition was inconclusive: -119%.
With `CN1CCN(S(=O)(=O)c2ccc(Br)c3nsnc23)CC1` the lipid storage change, negative = inhibition was inconclusive: -25.4%.
For `O=C(NC(C(=O)c1ccccc1)n1cnccc1=O)c1ccccc1` (stereo not given), the “lipid storage change, negative = inhibition” value was inactive: -5.22%.
For `CCC(C(=O)O/N=C(\N)c1ccc(Cl)cc1)c1ccccc1` (stereo not given), the Potency was inconclusive: 0.731 µM [falling, full curve].
In the case of `COc1ccc(-c2c/c(=N\c3nc(-c4ccccc4)c(C)s3)c3ccccc3o2)cc1O`, the Potency is reported as inconclusive: 29.1 µM [falling, single point].
For `O=C(N/N=C/c1ccc(OCc2ccccc2)cc1)c1cccs1`, the lipid storage change, negative = inhibition was inconclusive: 2.26%.
For `O=C1/C(=C\c2ccc(Br)o2)Cc2ccccc21`, the Potency was inconclusive: 8.2 µM [activator, partial curve, poor fit].
In the case of `O=C(c1ccco1)N1CCN(CCOCCOc2cccc3ccccc23)CC1`, the lipid storage change, negative = inhibition is reported as inconclusive: -0.0711%.
For `O=C(COC(=O)CCN1C(=O)c2ccccc2C1=O)Nc1ccccc1[N+](=O)[O-]`, the lipid storage change, negative = inhibition was inconclusive: 11.8%.
In the case of `Cc1ccc2nc(NC(=O)CCn3cccc3)sc2c1`, the lipid storage change, negative = inhibition is reported as inconclusive: 5.03%.
For `COc1ccc(-c2nc(SC(C)C(=O)c3c(N)n(C)c(=O)n(C)c3=O)n[nH]2)cc1` (stereo not given), the Potency was inconclusive: 0.0116 µM [falling, full curve, poor fit].
With `CCC/C=N/NC(=O)c1cc(Br)ccc1O` the Potency was inconclusive: 7.31 µM [falling, partial curve, poor fit].
In the case of `CN(C)CCCN(C(=O)c1ccc(C(=O)c2ccccc2)cc1)c1nc2ccc(F)cc2s1`, the lipid storage change, negative = inhibition is reported as inconclusive: -0.194%.
In the case of `O=C(NCCc1ccccc1)C1CCC(CNc2nc(=S)[nH]c3ccccc23)CC1` (stereo not given), the Potency is reported as inconclusive: 5.8 µM [rising, single point].
For `Cc1ccc(S(=O)(=O)N(Cc2ccccc2)c2ccccn2)cc1[N+](=O)[O-]`, the lipid storage change, negative = inhibition was inconclusive: -14.1%.
For `COc1ccc(N(CC(=O)NCCc2ccccc2)C(=O)CCC(=O)Nc2nccs2)cc1`, the Potency was inconclusive: 18.4 µM [falling, single point].
In the case of `COc1ccc(CNS(=O)(=O)c2ccc(-c3ccc(=O)[nH]n3)s2)cc1OC`, the lipid storage change, negative = inhibition is reported as inconclusive: -8.48%.
In the case of `COc1ccc(CCn2c(=N)c(S(=O)(=O)c3ccc(C)cc3)cc3c(=O)n4ccccc4nc32)cc1`, the Potency is reported as inconclusive: 29.1 µM [activator, single point].
For `OCC[C@H]1C[C@@H](O)[C@H](O)[C@]2(Cc3ccccc3O2)O1`, the lipid storage change, negative = inhibition was inconclusive: -13.5%.
For `CCCCSc1nnc2c(n1)[nH]c1ccccc12`, the Potency was inconclusive: 29.1 µM [activator, single point].
In the case of `COc1cc(/C=C2\C(=N)N3N=C(S(=O)(=O)CC(C)C)SC3=NC2=O)ccc1OC(=O)c1ccco1`, the Potency is reported as inconclusive: 23.1 µM [falling, single point].
In the case of `CCOc1c(C)cnc2c1c(=O)n(Cc1ccccc1Cl)c(=O)n2C`, the lipid storage change, negative = inhibition is reported as inconclusive: 44.3%.
In the case of `Cc1cccc(C)c1OCCN1CCOCC1`, the lipid storage change, negative = inhibition is reported as inconclusive: 200%.
In the case of `Cc1nc2sccn2c1-c1csc(NCc2ccccc2)n1`, the Potency is reported as inconclusive: 20.6 µM [activator, partial curve].
